Data as given in PubChem BioAssay AID743121 (NCATS, 2013)

Aim: 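Genes whose silencing strengthens cell killing by camptothecin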 (primary screen)
System: MDA-MB-231 cells, a human breast cancer line
Reagents: single siRNA against human genes, 20 nM siRNA (0.8 pmol per well)
Time to read-out: 120 h (drug added 48 h after transfection, read 72 h later)
Challenge: camptothecin 20 nM (about EC30) for 72 h; vehicle 0.1% DMSO in parallel plates
Detection: 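CellTiter-Glo ATP signal, scaled to control siRNA as percent viability; sensitisation given as log2 of untreated divided by camptothecin-treated viability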
Direction: log2 vehicle/camptothecin viability: higher = stronger sensitisation to camptothecin
Active means: 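Active genes have an RSA gene-level p-value below 0.001, computed from the ratios of their separate siRNAs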
In all, the deposit lists about 26,000 reagents; below is a part drawn at random. In the full data, 167 (0.63%) were called active. 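Calls are per gene from RSA p-values that are not deposited; an individual active-marked siRNA can sensitise only weakly.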 A number with no mark means an inactive call. The numbers tell different reagents against one gene apart. Further read-outs or replicates are left out here. Reagent sequences are not shown.

log2 vehicle/camptothecin viability, by gene and reagent
ADAM22 (GeneID 53616): #1 -0.341; #2 0.302; #3 -0.402
HTR2C (GeneID 3358): #1 -0.753; #2 -0.242; #3 -0.178; #4 0.161
BCL2A1 (GeneID 597): #1 -0.118; #2 -0.215; #3 -0.0152; #4 0.346
TNPO3 (GeneID 23534): #1 -0.349; #2 -0.329; #3 -0.661; #4 -0.175
TMT1B (GeneID 196410): #1 0.421; #2 -0.0106; #3 -0.493; #4 0.0233
GUCY1A2 (GeneID 2977): #1 -0.598; #2 -0.226; #3 -0.329; #4 -0.249
SERPINE1 (GeneID 5054): #1 0.668; #2 -0.244; #3 0.095; #4 -0.198
PLEKHM2 (GeneID 23207): #1 -0.00395; #2 -0.459; #3 -0.2; #4 0.185
PLCG1 (GeneID 5335): #1 0.279; #2 -0.0903; #3 0.0431; #4 -0.00187
ICAM1 (GeneID 3383): #1 -0.217; #2 -0.0836; #3 0.191; #4 0.239
NFKBIA (GeneID 4792): #1 -0.156; #2 -0.403; #3 -0.177; #4 -0.337

Part of the list above, reformatted.
{"gene":"SERPINE1 (GeneID 5054)","siRNA no.":4,"log2 vehicle/camptothecin viability":-0.198}
{"gene":"PLEKHM2 (GeneID 23207)","siRNA no.":1,"log2 vehicle/camptothecin viability":-0.00395}
{"gene":"PLEKHM2 (GeneID 23207)","siRNA no.":2,"log2 vehicle/camptothecin viability":-0.459}
{"gene":"PLEKHM2 (GeneID 23207)","siRNA no.":3,"log2 vehicle/camptothecin viability":-0.2}
{"gene":"PLEKHM2 (GeneID 23207)","siRNA no.":4,"log2 vehicle/camptothecin viability":0.185}
{"gene":"PLCG1 (GeneID 5335)","siRNA no.":1,"log2 vehicle/camptothecin viability":0.279}
{"gene":"PLCG1 (GeneID 5335)","siRNA no.":2,"log2 vehicle/camptothecin viability":-0.0903}
{"gene":"PLCG1 (GeneID 5335)","siRNA no.":3,"log2 vehicle/camptothecin viability":0.0431}

Next reagents:
log2 vehicle/camptothecin viability, by gene and reagent
RGS20 (GeneID 8601): #1 -0.291; #2 -0.348; #3 -0.265; #4 -0.263
LYN (GeneID 4067): #1 -0.187; #2 -0.496; #3 -0.158; #4 -0.194
PTPN4 (GeneID 5775): #1 -0.288; #2 -0.122; #3 -0.111; #4 -0.162
CLEC2D (GeneID 29121): #1 -0.448; #2 -0.111; #3 -0.077; #4 -0.0488
FGFR1OP2 (GeneID 26127): #1 0.102; #2 -0.691; #3 0.176; #4 -0.491
SIGLEC6 (GeneID 946): #1 -0.34; #2 0.0238; #3 -0.361; #4 0.579
MARCHF3 (GeneID 115123): #1 -0.454; #2 -0.227; #3 0.174; #4 0.0215
